{"sequences": {"note": "The chains behind the UniProt entries cited, without tags or fusion partners.", "UniProt P49841": "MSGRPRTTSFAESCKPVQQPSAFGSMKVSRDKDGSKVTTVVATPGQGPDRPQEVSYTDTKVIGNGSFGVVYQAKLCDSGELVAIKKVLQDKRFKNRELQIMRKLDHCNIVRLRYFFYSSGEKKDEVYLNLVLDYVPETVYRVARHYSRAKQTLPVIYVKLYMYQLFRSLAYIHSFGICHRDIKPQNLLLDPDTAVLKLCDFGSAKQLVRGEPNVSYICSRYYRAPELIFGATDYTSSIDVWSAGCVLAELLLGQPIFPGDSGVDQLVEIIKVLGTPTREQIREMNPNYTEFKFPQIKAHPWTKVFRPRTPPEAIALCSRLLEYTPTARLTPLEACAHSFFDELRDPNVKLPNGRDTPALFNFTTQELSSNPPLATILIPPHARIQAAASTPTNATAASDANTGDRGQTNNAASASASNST", "UniProt P08151": "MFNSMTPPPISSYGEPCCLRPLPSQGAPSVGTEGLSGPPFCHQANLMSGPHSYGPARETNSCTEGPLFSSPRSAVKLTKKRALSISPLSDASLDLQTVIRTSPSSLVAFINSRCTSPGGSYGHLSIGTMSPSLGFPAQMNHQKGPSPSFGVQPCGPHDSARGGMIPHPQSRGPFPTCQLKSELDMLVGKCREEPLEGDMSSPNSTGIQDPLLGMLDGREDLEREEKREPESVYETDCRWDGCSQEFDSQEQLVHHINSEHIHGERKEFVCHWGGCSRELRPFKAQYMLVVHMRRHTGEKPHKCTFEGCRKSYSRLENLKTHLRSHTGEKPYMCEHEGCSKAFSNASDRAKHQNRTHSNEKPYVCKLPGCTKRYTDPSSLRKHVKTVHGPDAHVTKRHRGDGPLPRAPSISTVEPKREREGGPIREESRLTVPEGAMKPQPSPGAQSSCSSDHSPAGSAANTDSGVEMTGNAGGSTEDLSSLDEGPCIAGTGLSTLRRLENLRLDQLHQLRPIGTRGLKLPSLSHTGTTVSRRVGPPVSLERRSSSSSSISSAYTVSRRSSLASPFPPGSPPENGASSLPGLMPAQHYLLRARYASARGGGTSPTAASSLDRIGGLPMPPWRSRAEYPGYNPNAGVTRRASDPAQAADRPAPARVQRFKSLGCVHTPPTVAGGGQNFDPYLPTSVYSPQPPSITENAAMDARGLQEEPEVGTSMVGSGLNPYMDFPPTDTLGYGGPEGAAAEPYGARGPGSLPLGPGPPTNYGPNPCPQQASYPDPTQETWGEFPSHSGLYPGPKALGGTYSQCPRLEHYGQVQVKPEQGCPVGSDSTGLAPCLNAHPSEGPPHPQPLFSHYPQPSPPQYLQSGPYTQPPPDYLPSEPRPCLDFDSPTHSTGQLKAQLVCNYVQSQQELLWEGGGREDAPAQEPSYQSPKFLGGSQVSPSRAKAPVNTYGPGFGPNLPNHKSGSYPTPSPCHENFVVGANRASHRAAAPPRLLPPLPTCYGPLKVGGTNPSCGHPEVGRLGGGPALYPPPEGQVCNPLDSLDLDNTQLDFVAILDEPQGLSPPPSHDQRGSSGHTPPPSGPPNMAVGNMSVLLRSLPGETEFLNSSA"}, "source": "paper PMC7393080", "molecular_target": "GSK3β (human (endogenous in A375)) (UniProt P49841)", "assay": "co-IP; Melanoma cells (shCtrl or sh/circ-GLI1) lysed in IP Lysis buffer; precipitated with GSK3β or IgG antibody, Pierce Classic IP Kit; SDS-PAGE and western blot", "note": "No constants are given. Whether binding was seen depends on the method and setting. In cells and extracts the contact can be indirect. Some binding calls cover weakened binding; strength is not graded here.", "data": [{"substance": "GLI1 (from UniProt P08151 1-1106)", "values": [{"measurement": "binding", "value": "binds"}]}]}
